Measurements from PMC8790125.
The exact form of at least one protein or probe is not confirmed.

Tested on: Rae1 + Nup98 GLEBS
Assay: EMSA
Conditions: recombinant protein

## UUUUUUUUUUUUUU [FAM-labeled 14-mer poly(U) ssRNA]
  binding result: binds
